Consider 26 molecules from ChEMBL document CHEMBL4513136, “CO-ADD screening of CSIC (Spain) compounds”.

Some of the results follow. Results with a measured potency or affinity are listed apart.

The subject of this test is Acinetobacter baumannii. The conditions noted are these: Concentration 32 ug.mL-1; ASSAY_TEST Inhibition of Bacterial Growth; detection method Absorption (OD600); MEDIA CAMHB; plate type 384well; NBS; CORNING #3640; time 18 hr.
One may read the Inhibition as the change of the read-out against control, counted positive when it falls. Consider `COC(=O)c1c(C(Cc2ccccc2)NC(=O)OCc2ccccc2)[nH]c2ccccc12` (stereo unspecified), for which the Inhibition worked out at 2.72%.
For `COc1ccc(C(=O)/C=C/c2ccc(OC)cc2OC)cc1` the value was 2%; for `O=C(OCc1ccccc1)N1C(=O)C(c2ccccc2NC(=O)C(F)(F)F)=C(O)C1Cc1ccccc1` (stereo unspecified), -0.34%.
As for `COc1ccc(OC)c(CC(=O)Nc2cc(OC)ccc2OC)c1`, the Inhibition stood at 12.47%.
For `COc1ccccc1/C=C/C(=O)c1cc(OC)c(OC)cc1OC`, the Inhibition was 1.46%.
For the molecule `O=C(/C=C/c1ccccc1O)c1cc(O)c(O)cc1O`, the Inhibition is listed as 6.82%.
As to `COc1ccc(OC)c(C(=O)/C=C/c2ccccc2O)c1`, the Inhibition is 7.89%.
For the molecule `O=C(Cc1cc(O)ccc1O)Nc1ccc(O)cc1`, the Inhibition was 15.39%.
For `O=C(Cc1cc(O)ccc1O)Nc1ccc(O)cc1O`, the Inhibition is 0.38%.
Consider `O=C(/C=C/c1c[nH]c2ccc(O)cc12)c1cc(O)ccc1O`, for which the Inhibition is listed as 9.7%.
For the molecule `COc1ccc(OC)c(CC(=O)Nc2ccc(OC)cc2OC)c1`, the Inhibition amounted to 4.05%.
Turning to `COc1ccc(OC)c(C(=O)/C=C/c2ccc(O)cc2)c1`, the Inhibition stood at 4.6%.
Turning to `COC(=O)C1(Cc2ccc(OCc3c(Cl)cccc3Cl)cc2)C(C)C(=O)N1Cc1ccc(OC)cc1` (stereo unspecified), the Inhibition is reported as 6.7%.
With `COc1ccc(OC)c(-c2cn(-c3ccc(OC)c(OC)c3)nn2)c1` the figure was 1.88%.
For `COc1ccc(NC(=O)Cc2cc(OC)ccc2OC)cc1` the value was 10.5%.
`CC1C(=O)N(Cc2ccc(OCCN3CCOCC3)cc2)C1(Cc1ccccc1)C(=O)O` (stereo unspecified): the Inhibition is recorded as 10.79%.
As for `COc1ccc(OC)c(C(=O)/C=C/c2c[nH]c3ccc(OC)cc23)c1`, the Inhibition is 11.59%.
For `COc1ccc(OC)c(NC(=O)Nc2ccc(OC)cc2OC)c1` the value was 2.37%; for `O=C(CCc1ccc(O)cc1O)c1cc(O)ccc1O`, 6.13%.
Consider `COc1ccc(OC)c(C(=O)CCc2ccc(O)cc2)c1`, for which the Inhibition is reported as -7.99%.
With `Oc1ccc(O)c(-c2cn(-c3ccc(O)c(O)c3)nn2)c1` the figure was 3.17%.
Take `O=C(Cc1cc(O)ccc1O)Nc1cc(O)ccc1O`: the Inhibition is 17.71%.
Consider `COc1ccc(CN2C(=O)C(C)C2(Cc2cn(C(=O)OC(C)(C)C)c3ccccc23)C(=O)OC(C)(C)C)cc1` (stereo unspecified), for which the Inhibition was determined as 2.64%.
With `O=C(Nc1ccc(O)cc1O)Nc1cc(O)ccc1O`, the Inhibition worked out at 12.96%.
Take `COc1ccc(OC)c(C(=O)CCc2ccccc2O)c1`: the Inhibition was 9.6%.
With `Oc1ccc(-n2cc(-c3cc(O)ccc3O)nn2)cc1`, the Inhibition is reported as 16.02%.
